Laboratory results: PMC6199276
These are yes or no findings as the source states them, for the method shown. Binding can be weak; no strength is given. Where a sequence is shown, tags or fusion partners need not be part of it. For some assays here: Binding seen in cells or lysates may run through a third protein.

How the values were obtained:
[1] = biological target: T1, HLH-30::GFP (C. elegans) (UniProt H2KZZ2); assay: co-IP; HLH-30::GFP immunoprecipitated with GFP-Trap resin from whole-worm lysates of daf-2 mutant animals expressing HLH-30::GFP and DAF-16::FLAG; Benzonase 50 U/ml; western blot anti-FLAG and anti-GFP
T1 sequence: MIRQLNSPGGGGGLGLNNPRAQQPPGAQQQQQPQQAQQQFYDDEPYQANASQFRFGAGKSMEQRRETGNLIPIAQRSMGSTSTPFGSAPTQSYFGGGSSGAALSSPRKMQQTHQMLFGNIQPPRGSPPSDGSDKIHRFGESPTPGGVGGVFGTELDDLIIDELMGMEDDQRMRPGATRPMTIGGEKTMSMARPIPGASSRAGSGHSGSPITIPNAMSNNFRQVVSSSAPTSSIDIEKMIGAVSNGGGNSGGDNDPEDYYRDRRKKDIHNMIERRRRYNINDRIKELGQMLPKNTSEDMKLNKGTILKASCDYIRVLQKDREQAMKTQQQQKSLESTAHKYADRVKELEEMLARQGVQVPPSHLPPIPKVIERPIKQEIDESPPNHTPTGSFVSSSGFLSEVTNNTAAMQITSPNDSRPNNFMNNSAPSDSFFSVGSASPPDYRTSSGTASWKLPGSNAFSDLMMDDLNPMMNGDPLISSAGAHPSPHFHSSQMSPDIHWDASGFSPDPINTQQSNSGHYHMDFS

[2] = biological target: T1, HLH-30::GFP (C. elegans); assay: SEC; cleared whole-worm lysates of animals co-expressing DAF-16::FLAG and HLH-30::GFP (untreated, daf-2(e1370ts), 6 h at 32 °C, or 6 h 6 mM tBOOH) on Superose 6 10/300; Benzonase 50 U/ml, 0.05% NP-40; fractions blotted anti-FLAG and anti-GFP

- binding [1]: binds
- binding [2]: binds
Substance: DAF-16::FLAG (from UniProt O16850-4)
